Data: article PMC4851422
No constants are given. Whether binding was seen depends on the method and setting. For some of these results: In cells and extracts the contact can be indirect. Some binding calls cover weakened binding; strength is not graded here.

Chains of the proteins cited; added tags and fusions are not shown.
UniProt P55822: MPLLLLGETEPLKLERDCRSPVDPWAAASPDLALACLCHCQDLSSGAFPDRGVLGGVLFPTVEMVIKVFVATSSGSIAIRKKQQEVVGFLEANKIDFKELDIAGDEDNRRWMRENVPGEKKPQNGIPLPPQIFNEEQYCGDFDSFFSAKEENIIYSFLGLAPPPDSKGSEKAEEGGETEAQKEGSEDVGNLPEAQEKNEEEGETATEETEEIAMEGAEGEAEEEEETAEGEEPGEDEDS
UniProt P40763: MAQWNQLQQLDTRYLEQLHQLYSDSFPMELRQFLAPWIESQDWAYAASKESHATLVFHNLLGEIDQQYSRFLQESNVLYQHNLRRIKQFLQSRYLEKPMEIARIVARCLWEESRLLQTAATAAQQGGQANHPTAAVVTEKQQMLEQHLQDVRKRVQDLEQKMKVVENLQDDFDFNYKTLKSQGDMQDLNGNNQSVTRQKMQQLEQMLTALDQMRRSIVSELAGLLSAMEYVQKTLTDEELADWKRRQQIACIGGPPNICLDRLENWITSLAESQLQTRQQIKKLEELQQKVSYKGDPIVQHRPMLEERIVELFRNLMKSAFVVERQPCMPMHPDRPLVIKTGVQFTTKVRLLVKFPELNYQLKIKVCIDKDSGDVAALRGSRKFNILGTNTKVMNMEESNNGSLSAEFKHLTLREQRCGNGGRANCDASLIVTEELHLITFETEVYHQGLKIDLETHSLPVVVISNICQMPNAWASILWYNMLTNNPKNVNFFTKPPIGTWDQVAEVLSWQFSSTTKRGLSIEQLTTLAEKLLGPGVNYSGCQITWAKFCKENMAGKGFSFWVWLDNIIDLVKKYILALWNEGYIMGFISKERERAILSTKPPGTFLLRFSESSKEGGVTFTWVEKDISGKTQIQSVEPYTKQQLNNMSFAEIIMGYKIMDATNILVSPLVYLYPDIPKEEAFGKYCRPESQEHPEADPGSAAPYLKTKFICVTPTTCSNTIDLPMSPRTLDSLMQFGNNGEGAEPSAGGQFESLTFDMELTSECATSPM

What was measured:
[1] = target: SH3 domain binding glutamate-rich protein (SH3BGR), endogenous in HUVEC (human (endogenous in HUVEC)) (UniProt P55822); test: co-IP; HUVEC lysates (150 mM NaCl, 1 mM EDTA, 5% glycerol, 1% NP-40, 25 mM Tris-HCl pH 7.4); IP with antibody against SH3BGR or STAT3 overnight at 4 °C, protein A beads, Western blot; cells untreated, transduced with lentivirus-SH3BGR or transfected with pCMV3-Flag-STAT3
[2] = target: SH3BGR with a Flag tag at the C-terminus (pHAGE-SH3BGR, lentivirus-SH3BGR) (human) (UniProt P55822); test: as above
[3] = target: GST-STAT3 fusion protein (full-length STAT3) (UniProt P40763); test: pull-down; equal amounts of GST or GST-STAT3 incubated with purified His-tagged SH3BGR for 2 h at 4 °C in 50 mM Tris-HCl pH 7.5, 100 mM NaCl, 0.25% Triton-X100, 35 mM 2-Me; bound SH3BGR detected with anti-His antibody; both purified

Row | binding [1] | binding [2] | binding [3] | Substance
1 | binds | – | – | Flag-STAT3 (pCMV3-Flag-STAT3 construct) (from UniProt P40763 1-770)
2 | binds | binds | – | STAT3, endogenous in HUVEC (from UniProt P40763 1-770)
3 | – | – | binds | 6 x His-SH3BGR protein (from UniProt P55822 1-239)
